For the test, the system named is BDF1 mice, intracerebral L1210 leukemia, survival T/C. In words: NCI In Vivo Anticancer Drug Screen. Data for tumor model L1210 Leukemia (intracerebral) in B6D2F1 (BDF1) mice. The note with it: T/C endpoint: mean survival time, higher T/C = longer survival. The essentials: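 Survival measured in treated and vehicle-control tumour-bearing mice; value = T/C.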

The list is a part of this screen's results and no random one: it gathers tests that were run many times, whatever their T/C, doses with no T/C, and many T/C values between a quarter and a half above the control. Further doses and runs are listed elsewhere. T/C is the treated group as % of the vehicle group. Some entries give survivors of the animals treated and no T/C: the source files T/C as zero there, which appears to mark a toxic dose or a test without result, not a measured value. Some survivor counts are full or nearly so, which does not show that the dose was tolerated: the source hardly ever lists a survival T/C far under the control, and the zero likely stands for such cases as well. Counts of survivors are from the toxicity check (mostly the fifth day) where no day follows; animals may have died later. Schedule codes are those of the source, taken here to give the interval after Q, in days (D) or hours (H), and the number of doses after X. Where survival is the endpoint, this PubChem deposit counts one and a half times the control or more as active, and values a quarter to a half above the control carry no call in these data; other NCI protocols may use other cut-offs. Some entries were tested several times; the values are given in rising order. Some T/C values are followed by the survivors on the day toxicity was checked, most often the fifth; without a count, all were alive then.

As to `CCOC(=O)C1CCC(NC(=O)N(CCCl)N=O)CC1` (stereo not given), the T/C (dose: 8.0 mg/kg/injection, schedule: Q01DX001 (ip), vehicle: other) is 132 % of control; the T/C (dose: 16.0 mg/kg/injection, schedule: Q01DX001 (ip), vehicle: other) was 125 and 131 % of control; the T/C (dose: 20.0 mg/kg/injection, schedule: Q01DX001 (ip), vehicle: other) was 137 % of control; the T/C (dose: 21.0 mg/kg/injection, schedule: Q01DX001 (ip), vehicle: other) is 132 and 139 % of control; the T/C (dose: 30.0 mg/kg/injection, schedule: Q01DX001 (ip), vehicle: other) was 149 % of control. Further, where the note is “dose: 100.0 mg/kg/injection, schedule: Q01DX001 (ip), vehicle: other”, the survivor count was 9 of 10.

`COCCOCCN1CCN(CCCN2c3ccccc3Sc3ccc(C(F)(F)F)cc32)CC1`: the survivor count is, setting by setting: (dose: 25.0 mg/kg/injection, schedule: Q01DX009 (ip), vehicle: saline) 0 of 6; (dose: 35.0 mg/kg/injection, schedule: Q01DX009 (ip), vehicle: saline) 0 of 6; (dose: 50.0 mg/kg/injection, schedule: Q01DX009 (ip), vehicle: saline) 0 of 6.

With `O=NN(CCCl)C(=O)N[C@H]1CCCC[C@@H]1Cl`, the T/C (dose: 13.0 mg/kg/injection, schedule: Q01DX001 (ip), vehicle: carboxymethylcellulose (CMC)) is 131 % of control; the T/C (dose: 19.0 mg/kg/injection, schedule: Q01DX001 (ip), vehicle: carboxymethylcellulose (CMC)) is 126 % of control; the T/C (dose: 61.0 mg/kg/injection, schedule: Q01DX001 (ip), vehicle: other) was 149 % of control. Further, the survivor count (dose: 91.5 mg/kg/injection, schedule: Q01DX001 (ip), vehicle: carboxymethylcellulose (CMC)) was 6 of 10.

Consider `CC(C)(Cc1ccccc1)NC(=O)N(CCCl)N=O`, for which the T/C (dose: 750.0 mg/kg/injection, schedule: Q01DX001 (ip), vehicle: other) was 126 % of control [9 of 10 alive] and the T/C (dose: 1125.0 mg/kg/injection, schedule: Q01DX001 (ip), vehicle: other) was 135 % of control [9 of 10 alive].

The values above are taken from PubChem BioAssay AID252 (DTP/NCI, 2004).
